These are yes or no findings as the source states them, for the method shown. In cells and extracts the contact can be indirect. Some binding calls cover weakened binding; strength is not graded here. Tags and fused reporters may be left off the sequences shown.

This assay deals with T1, Minichromosome maintenance family protein 5 (MCM5), At2g07690, from Arabidopsis cell suspension culture (Arabidopsis) (UniProt O80786).
T1 sequence (looked up): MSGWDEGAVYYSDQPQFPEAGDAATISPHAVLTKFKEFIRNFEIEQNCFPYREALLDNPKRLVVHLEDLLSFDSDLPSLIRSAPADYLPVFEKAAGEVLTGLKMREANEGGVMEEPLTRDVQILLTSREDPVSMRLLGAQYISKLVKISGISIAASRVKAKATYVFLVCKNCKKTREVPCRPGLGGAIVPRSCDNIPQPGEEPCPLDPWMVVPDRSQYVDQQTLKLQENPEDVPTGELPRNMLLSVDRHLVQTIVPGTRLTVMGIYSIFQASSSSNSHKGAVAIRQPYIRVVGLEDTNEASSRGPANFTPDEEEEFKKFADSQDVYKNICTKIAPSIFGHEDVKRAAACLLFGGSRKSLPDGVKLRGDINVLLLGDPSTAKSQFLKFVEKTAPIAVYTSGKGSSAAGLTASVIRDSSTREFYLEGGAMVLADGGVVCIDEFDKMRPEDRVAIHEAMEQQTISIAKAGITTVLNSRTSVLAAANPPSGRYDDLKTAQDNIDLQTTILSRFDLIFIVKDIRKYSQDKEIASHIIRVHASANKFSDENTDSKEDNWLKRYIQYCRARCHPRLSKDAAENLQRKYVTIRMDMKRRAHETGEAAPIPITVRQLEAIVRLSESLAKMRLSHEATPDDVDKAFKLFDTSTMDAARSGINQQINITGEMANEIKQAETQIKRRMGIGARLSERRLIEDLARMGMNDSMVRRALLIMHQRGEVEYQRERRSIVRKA
The experiment in a line: tandem affinity purification from Arabidopsis cell culture, MALDI-TOF/TOF MS (co-purified, may be indirect).

B1: TAP-ETG1 (TAP-tagged ETG1 bait, Pro35S:TAP-ETG1) (protein, Arabidopsis, UniProt Q501D5 1-589, looked up)
chain: MGGPAYDCLTNPLGAVRFSFVNALSSGYDPASSVGKDWGVVDLFRHYFSDESAISQVPILDSSSIKWVQPKTLVRFRGMIQDMLGNEFYAGAYKDDSTWRTNKYSDVSQFPEGSSTEIQVWERRLLYCVPVPGKNQWTECSSQELKNRFLDLTGQNREKRVRVDEEMTDSMDSSTLEAGRNGSPFKKMKVGEATSSASESQVPQTSGIPPATSADSLPCLVKIYDSPESDLKLNDVVEFLGVLTFDPIVMMDTDTLDENSDALSEAESVQMPSGKVPRLHCLIHRKLETQHFLHGSSLLPEPKSPQIFKEIRESLMKYLTGLLGNDHIAAQFLLLHLLSKVHGRVDNVAVGKLSLNLIHLNKESMSIFGTQLSGALKSLLPFTQSIPLTIEYLNTASFGPKKDYGINRLMPGVLQIADGTHLILDETELQPGTLNSVGVENANLLKNLLECQKVEYDFQYYKMEMATDVQMLIFSEGKSNIMPADLVLPLQPSQVNSLEVITPETAETWRCYLATCKSLSHSIGQELQQVVENDLVAARQTDRSLGSQDLSRLLTMARMMSVSYGETTLSLEHWQMVLELERLRKERLK
On to B1, for which the binding entry is recorded as “binds”.

Values taken from US20110229491A1 (published 2011).
